# Experimental data: the supplement of paper PMC11438910
# The other results are listed elsewhere or left out. The signal is at background level for most entries.
# B1: 3S41.4 (protein)
# chain 1: EVQLVESGGGLVQPGGSLRLSCATSGFTFSNYWMYWFRQAPGKGLEWVSTISGSSTNTYYSGSVKGRFTISRDNAKNTLYLQMNSLRAEDTAVYYCARRGTDSSHWYFDLWGPGTPITVSS
# chain 2: EIVMTQSPATLSLSPGERATLSCRASQSVSSNLAWYQQKPGQGPRLLIYDASNRATGIPDRFGGSGSGTDFTLTISSLEPEDVGVYYCQQESNWPLTFGGGTKVEIK
# What was measured:
# Experiment in all cases: fluorescence intensity of antibody binding to polysaccharide-coupled beads; higher = stronger binding
# [1] = molecular target: pneumococcal polysaccharide Pn23F
# [2] = molecular target: pneumococcal polysaccharide Pn24A
# [3] = molecular target: pneumococcal polysaccharide Pn24B
# [4] = molecular target: pneumococcal polysaccharide Pn24F
# [5] = molecular target: pneumococcal polysaccharide Pn25A
# [6] = molecular target: pneumococcal polysaccharide Pn25F
# [7] = molecular target: pneumococcal polysaccharide Pn27
# [8] = molecular target: pneumococcal polysaccharide Pn28A
# [9] = molecular target: pneumococcal polysaccharide Pn28F
# [10] = molecular target: pneumococcal polysaccharide Pn29
# [11] = molecular target: pneumococcal polysaccharide Pn3
# [12] = molecular target: pneumococcal polysaccharide Pn31
# [13] = molecular target: pneumococcal polysaccharide Pn32A
# [14] = molecular target: pneumococcal polysaccharide Pn32F
# [15] = molecular target: pneumococcal polysaccharide Pn33A
# [16] = molecular target: pneumococcal polysaccharide Pn33B
# [17] = molecular target: pneumococcal polysaccharide Pn33C
# [18] = molecular target: pneumococcal polysaccharide Pn33D
# [19] = molecular target: pneumococcal polysaccharide Pn33F
# [20] = molecular target: pneumococcal polysaccharide Pn34
# [21] = molecular target: pneumococcal polysaccharide Pn35A
# [22] = molecular target: pneumococcal polysaccharide Pn35B
# [23] = molecular target: pneumococcal polysaccharide Pn35C
# [24] = antibody concentration 2.8593 ng/mL
# [25] = antibody concentration 15.2894 ng/mL
# [26] = antibody concentration 81.7561 ng/mL
# [27] = antibody concentration 437.17 ng/mL
# [28] = antibody concentration 2337.65 ng/mL
# [29] = antibody concentration 12500 ng/mL
# [30] = antibody concentration 0.1 ng/mL
# [31] = antibody concentration 0.534724 ng/mL
binder,measurement,setting,value
B1,fluorescence intensity,[1]; [24],16.5 MFI
same,fluorescence intensity,[1]; [25],18 MFI
same,fluorescence intensity,[1]; [26],17.8 MFI
same,fluorescence intensity,[1]; [27],18.2 MFI
same,fluorescence intensity,[1]; [28],20.8 MFI
same,fluorescence intensity,[1]; [29],34.8 MFI
same,fluorescence intensity,[2]; [30],16 MFI
same,fluorescence intensity,[2]; [31],14 MFI
same,fluorescence intensity,[2]; [24],16 MFI
same,fluorescence intensity,[2]; [25],14.5 MFI
same,fluorescence intensity,[2]; [26],14.8 MFI
same,fluorescence intensity,[2]; [27],15 MFI
same,fluorescence intensity,[2]; [28],18 MFI
same,fluorescence intensity,[2]; [29],32 MFI
same,fluorescence intensity,[3]; [30],18.5 MFI
same,fluorescence intensity,[3]; [31],17.5 MFI
same,fluorescence intensity,[3]; [24],18 MFI
same,fluorescence intensity,[3]; [25],17.8 MFI
same,fluorescence intensity,[3]; [26],16.8 MFI
same,fluorescence intensity,[3]; [27],19 MFI
same,fluorescence intensity,[3]; [28],25.5 MFI
same,fluorescence intensity,[3]; [29],48.8 MFI
same,fluorescence intensity,[4]; [30],16 MFI
same,fluorescence intensity,[4]; [31],18 MFI
same,fluorescence intensity,[4]; [24],15.8 MFI
same,fluorescence intensity,[4]; [25],17.5 MFI
same,fluorescence intensity,[4]; [26],18.8 MFI
same,fluorescence intensity,[4]; [27],22.8 MFI
same,fluorescence intensity,[4]; [28],27.5 MFI
same,fluorescence intensity,[4]; [29],46.2 MFI
same,fluorescence intensity,[5]; [30],22.2 MFI
same,fluorescence intensity,[5]; [31],23 MFI
same,fluorescence intensity,[5]; [24],23 MFI
same,fluorescence intensity,[5]; [25],22.8 MFI
same,fluorescence intensity,[5]; [26],23.5 MFI
same,fluorescence intensity,[5]; [27],23.5 MFI
same,fluorescence intensity,[5]; [28],28.5 MFI
same,fluorescence intensity,[5]; [29],40 MFI
same,fluorescence intensity,[6]; [30],29.5 MFI
same,fluorescence intensity,[6]; [31],29 MFI
same,fluorescence intensity,[6]; [24],30 MFI
same,fluorescence intensity,[6]; [25],29.5 MFI
same,fluorescence intensity,[6]; [26],29 MFI
same,fluorescence intensity,[6]; [27],30 MFI
same,fluorescence intensity,[6]; [28],31 MFI
same,fluorescence intensity,[6]; [29],44.2 MFI
same,fluorescence intensity,[7]; [30],16 MFI
same,fluorescence intensity,[7]; [31],16 MFI
same,fluorescence intensity,[7]; [24],17 MFI
same,fluorescence intensity,[7]; [25],16.5 MFI
same,fluorescence intensity,[7]; [26],16.5 MFI
same,fluorescence intensity,[7]; [27],17.5 MFI
same,fluorescence intensity,[7]; [28],24.5 MFI
same,fluorescence intensity,[7]; [29],95.8 MFI
same,fluorescence intensity,[8]; [30],25.5 MFI
same,fluorescence intensity,[8]; [31],26.5 MFI
same,fluorescence intensity,[8]; [24],26 MFI
same,fluorescence intensity,[8]; [25],26 MFI
same,fluorescence intensity,[8]; [26],25.8 MFI
same,fluorescence intensity,[8]; [27],27.5 MFI
same,fluorescence intensity,[8]; [28],27.5 MFI
same,fluorescence intensity,[8]; [29],39 MFI
same,fluorescence intensity,[9]; [30],28.5 MFI
same,fluorescence intensity,[9]; [31],28.5 MFI
same,fluorescence intensity,[9]; [24],27.2 MFI
same,fluorescence intensity,[9]; [25],28.5 MFI
same,fluorescence intensity,[9]; [26],27.5 MFI
same,fluorescence intensity,[9]; [27],29.8 MFI
same,fluorescence intensity,[9]; [28],31.2 MFI
same,fluorescence intensity,[9]; [29],59.2 MFI
same,fluorescence intensity,[10]; [30],16.8 MFI
same,fluorescence intensity,[10]; [31],13.8 MFI
same,fluorescence intensity,[10]; [24],16 MFI
same,fluorescence intensity,[10]; [25],16 MFI
same,fluorescence intensity,[10]; [26],16 MFI
same,fluorescence intensity,[10]; [27],16.5 MFI
same,fluorescence intensity,[10]; [28],20 MFI
same,fluorescence intensity,[10]; [29],56 MFI
same,fluorescence intensity,[11]; [30],16.2 MFI
same,fluorescence intensity,[11]; [31],40.2 MFI
same,fluorescence intensity,[11]; [24],153 MFI
same,fluorescence intensity,[11]; [25],791 MFI
same,fluorescence intensity,[11]; [26],2640 MFI
same,fluorescence intensity,[11]; [27],9590 MFI
same,fluorescence intensity,[11]; [28],14600 MFI
same,fluorescence intensity,[11]; [29],29300 MFI
same,fluorescence intensity,[12]; [30],14 MFI
same,fluorescence intensity,[12]; [31],14 MFI
same,fluorescence intensity,[12]; [24],13 MFI
same,fluorescence intensity,[12]; [25],13.5 MFI
same,fluorescence intensity,[12]; [26],14 MFI
same,fluorescence intensity,[12]; [27],14 MFI
same,fluorescence intensity,[12]; [28],17.5 MFI
same,fluorescence intensity,[12]; [29],62.5 MFI
same,fluorescence intensity,[13]; [30],14.5 MFI
same,fluorescence intensity,[13]; [31],16.8 MFI
same,fluorescence intensity,[13]; [24],17.2 MFI
same,fluorescence intensity,[13]; [25],17.5 MFI
same,fluorescence intensity,[13]; [26],16.8 MFI
same,fluorescence intensity,[13]; [27],20 MFI
same,fluorescence intensity,[13]; [28],23.8 MFI
same,fluorescence intensity,[13]; [29],43.2 MFI
same,fluorescence intensity,[14]; [30],25 MFI
same,fluorescence intensity,[14]; [31],26 MFI
same,fluorescence intensity,[14]; [24],26.5 MFI
same,fluorescence intensity,[14]; [25],26 MFI
same,fluorescence intensity,[14]; [26],27.5 MFI
same,fluorescence intensity,[14]; [27],29.5 MFI
same,fluorescence intensity,[14]; [28],37.5 MFI
same,fluorescence intensity,[14]; [29],60.5 MFI
same,fluorescence intensity,[15]; [30],19.5 MFI
same,fluorescence intensity,[15]; [31],18 MFI
same,fluorescence intensity,[15]; [24],18 MFI
same,fluorescence intensity,[15]; [25],16.5 MFI
same,fluorescence intensity,[15]; [26],17.8 MFI
same,fluorescence intensity,[15]; [27],21 MFI
same,fluorescence intensity,[15]; [28],50.8 MFI
same,fluorescence intensity,[15]; [29],248 MFI
same,fluorescence intensity,[16]; [30],17.5 MFI
same,fluorescence intensity,[16]; [31],17 MFI
same,fluorescence intensity,[16]; [24],18 MFI
same,fluorescence intensity,[16]; [25],17 MFI
same,fluorescence intensity,[16]; [26],17.2 MFI
same,fluorescence intensity,[16]; [27],18.5 MFI
same,fluorescence intensity,[16]; [28],18.5 MFI
same,fluorescence intensity,[16]; [29],29.2 MFI
same,fluorescence intensity,[17]; [30],19.2 MFI
same,fluorescence intensity,[17]; [31],19.5 MFI
same,fluorescence intensity,[17]; [24],18 MFI
same,fluorescence intensity,[17]; [25],19.5 MFI
same,fluorescence intensity,[17]; [26],18.8 MFI
same,fluorescence intensity,[17]; [27],18.2 MFI
same,fluorescence intensity,[17]; [28],21.5 MFI
same,fluorescence intensity,[17]; [29],50.8 MFI
same,fluorescence intensity,[18]; [30],16 MFI
same,fluorescence intensity,[18]; [31],15.8 MFI
same,fluorescence intensity,[18]; [24],15.5 MFI
same,fluorescence intensity,[18]; [25],14.5 MFI
same,fluorescence intensity,[18]; [26],16 MFI
same,fluorescence intensity,[18]; [27],17 MFI
same,fluorescence intensity,[18]; [28],18.5 MFI
same,fluorescence intensity,[18]; [29],28.5 MFI
same,fluorescence intensity,[19]; [30],13 MFI
same,fluorescence intensity,[19]; [31],13 MFI
same,fluorescence intensity,[19]; [24],12.5 MFI
same,fluorescence intensity,[19]; [25],12.5 MFI
same,fluorescence intensity,[19]; [26],13.2 MFI
same,fluorescence intensity,[19]; [27],14.5 MFI
same,fluorescence intensity,[19]; [28],23.8 MFI
same,fluorescence intensity,[19]; [29],93.5 MFI
same,fluorescence intensity,[20]; [30],14.5 MFI
same,fluorescence intensity,[20]; [31],13.2 MFI
same,fluorescence intensity,[20]; [24],14 MFI
same,fluorescence intensity,[20]; [25],13.5 MFI
same,fluorescence intensity,[20]; [26],14 MFI
same,fluorescence intensity,[20]; [27],12.5 MFI
same,fluorescence intensity,[20]; [28],15.5 MFI
same,fluorescence intensity,[20]; [29],22 MFI
same,fluorescence intensity,[21]; [30],19 MFI
same,fluorescence intensity,[21]; [31],17.5 MFI
same,fluorescence intensity,[21]; [24],16 MFI
same,fluorescence intensity,[21]; [25],16.2 MFI
same,fluorescence intensity,[21]; [26],16.5 MFI
same,fluorescence intensity,[21]; [27],17.2 MFI
same,fluorescence intensity,[21]; [28],23.5 MFI
same,fluorescence intensity,[21]; [29],75.8 MFI
same,fluorescence intensity,[22]; [30],18.5 MFI
same,fluorescence intensity,[22]; [31],17.5 MFI
same,fluorescence intensity,[22]; [24],17 MFI
same,fluorescence intensity,[22]; [25],17 MFI
same,fluorescence intensity,[22]; [26],18 MFI
same,fluorescence intensity,[22]; [27],18 MFI
same,fluorescence intensity,[22]; [28],24 MFI
same,fluorescence intensity,[22]; [29],53 MFI
same,fluorescence intensity,[23]; [30],19 MFI
same,fluorescence intensity,[23]; [31],19.5 MFI
same,fluorescence intensity,[23]; [24],20 MFI
same,fluorescence intensity,[23]; [25],20 MFI
same,fluorescence intensity,[23]; [26],18.5 MFI
same,fluorescence intensity,[23]; [27],19.5 MFI

# Part of the list above, with tabs.
binder	measurement	setting	value
B1	fluorescence intensity	[1]; [26]	17.8 MFI
same	fluorescence intensity	[2]; [25]	14.5 MFI
same	fluorescence intensity	[3]; [28]	25.5 MFI
same	fluorescence intensity	[4]; [30]	16 MFI
same	fluorescence intensity	[5]; [25]	22.8 MFI
same	fluorescence intensity	[5]; [28]	28.5 MFI
same	fluorescence intensity	[5]; [29]	40 MFI
same	fluorescence intensity	[7]; [25]	16.5 MFI
same	fluorescence intensity	[7]; [27]	17.5 MFI
same	fluorescence intensity	[7]; [29]	95.8 MFI
same	fluorescence intensity	[8]; [24]	26 MFI
same	fluorescence intensity	[8]; [25]	26 MFI
same	fluorescence intensity	[9]; [24]	27.2 MFI
same	fluorescence intensity	[9]; [26]	27.5 MFI
same	fluorescence intensity	[9]; [29]	59.2 MFI
same	fluorescence intensity	[10]; [29]	56 MFI
same	fluorescence intensity	[11]; [26]	2640 MFI
same	fluorescence intensity	[11]; [29]	29300 MFI
same	fluorescence intensity	[12]; [24]	13 MFI
same	fluorescence intensity	[12]; [26]	14 MFI
same	fluorescence intensity	[12]; [28]	17.5 MFI
same	fluorescence intensity	[12]; [29]	62.5 MFI
same	fluorescence intensity	[13]; [24]	17.2 MFI
same	fluorescence intensity	[13]; [27]	20 MFI
same	fluorescence intensity	[14]; [27]	29.5 MFI
same	fluorescence intensity	[15]; [24]	18 MFI
same	fluorescence intensity	[16]; [29]	29.2 MFI
same	fluorescence intensity	[17]; [30]	19.2 MFI
same	fluorescence intensity	[17]; [27]	18.2 MFI
same	fluorescence intensity	[17]; [29]	50.8 MFI
same	fluorescence intensity	[18]; [31]	15.8 MFI
same	fluorescence intensity	[20]; [25]	13.5 MFI
same	fluorescence intensity	[21]; [24]	16 MFI
same	fluorescence intensity	[21]; [28]	23.5 MFI
same	fluorescence intensity	[22]; [27]	18 MFI
